The text below walks through data of patent publication US20240391889A1, “ANTIMICROBIAL COMPOUNDS AND THE METHODS OF USE” (priority 2021, published 2024).

This data set concerns HepG2 liver cells. The data set is classed as cell-based. As to the method:
The mammalian cell lines that were tested (HepG2, 3T3, and HaCat) were incubated with RMG9-11 for 72 hours and cell viability was determined via mitochondrial activity using an MTT reduction assay where viable cells reduce MTT to formazan. Toxicity is reported as the concentration of the peptoid that results in a 50% reduction in viable cells, termed toxicity dose 50% or TD50. […] SR is defined as the TD50 divided by MIC and provides a measure of the therapeutic window for a compound. Typically for most lead compounds that would continue through development and optimization, a SR of 10 is preferred while an SR of 100 is more desirable for a compound moving into preclinical animal model evaluation.
Hepatocellular carcinoma (HepG2), mouse fibroblast (3T3), and human keratinocyte (HaCat) cells were cultured in Dulbeco modified eagle media (DMEM) containing 10% fetal bovine serum (FBS) and 1% penicillin, streptomycin, and glutamine (PSG) at 37° C. and 5% CO2. Cells were collected and adjusted to […] to 4×10^5 cells/mL in phenol-red free DMEM and plated (100 μL) 96 well plates. 2-fold serial dilutions of 10× peptoid (11.1 μL) were added to each well in triplicate. Water (vehicle) was used as a negative control. Plates were incubated at 37° C. in 5% CO2 for 72 hours. […] Plates were read on a SPECTRAMAX M5 plate reader (Abs. 570 nm). […]

Numbered stars: 1 amine (or outer) side, 2 acyl side, 3 side chain; on linkers, the order of the positions; unused ones are H or OH. Square brackets hold non-standard residues; d marks the D form. Peptide text beside a SMILES is read from it. N(tridecyl)Gly = CCCCCCCCCCCCCNCC(=O)O; X1 = CC(c1ccccc1)N(CC(=O)[*:2])[*:1]; NFurfurylGly = O=C(O)CNCc1ccco1; Gly(N(CH2)3NH2) = NCCCNCC(=O)O; Nphe = O=C(O)CNCc1ccccc1; NPrGly = CCCNCC(=O)O; Nlys = NCCCCNCC(=O)O

In the case of `CCCCCCCCCCCCCNCC(=O)N(CCC)CC(=O)N(CC(=O)N(CCCCN)CC(=O)N(CC(=O)N(CC(=O)N(CCCN)CC(N)=O)Cc1ccccc1)Cc1ccco1)C(C)c1ccccc1` (centres unmarked) [RMG9-11] (H-[N(tridecyl)Gly][NPrGly][X1][Nlys][NFurfurylGly][Nphe][Gly(N(CH2)3NH2)]-NH2), the “C. neoformans SR (HepG2 TD50/MIC)” value (HepG2 TD50 divided by C. neoformans MIC) is given as 36. Also, the “C. albicans SR (HepG2 TD50/MIC)” value (HepG2 TD50 divided by MIC against planktonic C. albicans) stood at 18.
